Assays:
Format in all cases: cell-based, mouse
DYT-TOR1A MEF EVs [1] = test: Quantitative LC-MS/MS proteomics of EVs from drug-treated DYT-TOR1A MEF cultures (ritonavir, salubrinal); settings: for DYT1/DYT1 + RTV: Directionality of protein change in MEFs EV dataset in DYT1 derived MEFs treated with Ritonavir; for DYT1/DYT1 + Sal: Directionality of protein change in MEFs EV dataset in DYT1 derived MEFs treated with salubrinal; for RTV Corrective Direction: Ritonavir; for RTV Corrective Direction / Sal Corrective Direction: was treatment in MEF's in the direction of WT-like?; for Sal Corrective Direction: Salubrinal
DYT-TOR1A MEF EVs [2] = test: Quantitative LC-MS/MS proteomics of MEF EVs, DYT-TOR1A genotype vs WT; settings: Directionality of protein change in MEFs EV dataset between WT and DYT1 derived MEFs
WT MEF EVs = test: Quantitative LC-MS/MS proteomics of EVs from ISRIB-treated WT MEF cultures; settings: Directionality of protein change in MEFs EV dataset in WT derived MEFs treated with ISRIB

Row | Molecule | DYT1/DYT1 + RTV (DYT-TOR1A MEF EVs [1]) | DYT1/DYT1 + Sal (DYT-TOR1A MEF EVs [1]) | RTV Corrective Direction (DYT-TOR1A MEF EVs [1]) | Sal Corrective Direction (DYT-TOR1A MEF EVs [1]) | DYT1/WT (DYT-TOR1A MEF EVs [2]) | WT + ISRIB/WT (WT MEF EVs)
1 | Cryab (protein, UniProt P23927 1-175, looked up) Alpha-crystallin B chain: MDIAIHHPWIRRPFFPFHSPSRLFDQFFGEHLLESDLFSTATSLSPFYLRPPSFLRAPSWIDTGLSEMRLEKDRFSVNLDVKHFSPEELKVKVLGDVIEVHGKHEERQDEHGFISREFHRKYRIPADVDPLTITSSLSSDGVLTVNGPRKQVSGPERTIPITREEKPAVAAAPKK | DOWN | DOWN | Yes | Yes | DOWN | 
2 | Ano6 (protein, UniProt Q4KMQ2 1-910, looked up) Anoctamin-6: MKKMSRNVLLQMEEEEDDDDGDIVLENLGQTIVPDLGSLESQHDFRTPEFEEFNGKPDSLFFNDGQRRIDFVLVYEDESRKETNKKGTNEKQRRKRQAYESNLICHGLQLEATRSVLDDKLVFVKVHAPWEVLCTYAEIMHIKLPLKPNDLKNRSSAFGTLNWFTKVLSVDESIIKPEQEFFTAPFEKNRMNDFYIVDRDAFFNPATRSRIVYFILSRVKYQVINNVSKFGINRLVNSGIYKAAFPLHDCKFRRQSEDPSCPNERYLLYREWAHPRSIYKKQPLDLIRKYYGEKIGIYFAWLGYYTQMLLLAAVVGVACFLYGYLNQDNCTWSKEVCHPDIGGKIIMCPQCDRLCPFWKLNITCESSKKLCIFDSFGTLVFAVFMGVWVTLFLEFWKRRQAELEYEWDTVELQQEEQARPEYEARCTHVVINEITQEEERIPFTAWGKCIRITLCASAVFFWILLIIASVIGIIVYRLSVFIVFSAKLPKNINGTDPIQKYLTPQTATSITASIISFIIIMILNTIYEKVAIMITNFELPRTQTDYENSLTMKMFLFQFVNYYSSCFYIAFFKGKFVGYPGDPVYWLGKYRNEECDPGGCLLELTTQLTIIMGGKAIWNNIQEVLLPWIMNLIGRFHRVSGSEKITPRWEQDYHLQPMGKLGLFYEYLEMIIQFGFVTLFVASFPLAPLLALVNNILEIRVDAWKLTTQFRRLVPEKAQDIGAWQPIMQGIAILAVVTNAMIIAFTSDMIPRLVYYWSFSVPPYGDHTSYTMEGYINNTLSIFKVADFKNKSKGNPYSDLGNHTTCRYRDFRYPPGHPQEYKHNIYYWHVIAAKLAFIIVMEHVIYSVKFFISYAIPDVSKRTKSKIQREKYLTQKLLHENHLKDMTKNMGVIAERMIEAVDNNLRPKSE | DOWN |  | No | Yes |  | 
3 | Tubb1 (protein, UniProt A2AQ07 1-451, looked up) Tubulin beta-1 chain: MREIVHIQIGQCGNQIGAKFWEVIGEEHGIDCAGSYCGTSALQLERISVYYNEAYGKKYVPRAVLVDLEPGTMDSIRSSRLGVLFQPDSFVHGNSGAGNNWAKGHYTEGAELIENVMDVVRRESESCDCLQGFQIVHSLGGGTGSGMGTLLMNKIREEYPDRILNSFSVMPSPKVSDTVVEPYNAVLSIHQLIENTDACFCIDNEALYDICFRTLRLTTPTYGDLNHLVSLTMSGITTSLRFPGQLNADLRKLAVNMVPFPRLHFFMPGFAPLTAQGSQQYRALSVAELTQQMFDARNIMAACDPRRGRYLTVACIFRGKMSTKEVDQQLLSIQTRNSNCFVEWIPNNVKVAVCDIPPRGLNMAATFLGNNTAIQELFTRVSEHFSAMFRRRAFVHWYTSEGMDISEFGEAESDIHDLVSEYQQFQDVRAGLEDSEEDVEEAEVEAEDKDH |  |  | No | No | DOWN | 
4 | Lrrc59 (protein, UniProt Q922Q8 1-307, looked up) Leucine-rich …: MTKAGSKGGNLRDKLDGNELDLSLSDLNEVPVKELAALPKATVLDLSCNKLSTLPSDFCGLTHLVKLDLSKNKLQQLPADFGRLVNLQHLDLLNNRLVTLPVSFAQLKNLKWLDLKDNPLDPVLAKVAGDCLDEKQCKQCANKVLQHMKAVQADQERERQRRLEVEREAEKKREAKQQAKEAKERELRKREKAEEKERRRKEYDAQKASKREQEKKPKKEANQAPKSKSGSRPRKPPPRKHTRSWAVLKVLLLLLLLCVAGGLVVCRVTGLHQQPLCTSVNTIYDNAVQGLRHHEILQWVLQTDSQQ | DOWN |  | Yes | No | DOWN | 
5 | Hnrnpc (protein, UniProt Q9Z204 2-313, looked up) Heterogeneous nuclear …: ASNVTNKTDPRSMNSRVFIGNLNTLVVKKSDVEAIFSKYGKIVGCSVHKGFAFVQYVNERNARAAVAGEDGRMIAGQVLDINLAAEPKVNRGKAGVKRSAAEMYGSVPEHPSPSPLLSSSFDLDYDFQRDYYDRMYSYPARVPPPPPIARAVVPSKRQRVSGNTSRRGKSGFNSKSGQRGSSSKSGKLKGDDLQAIKKELTQIKQKVDSLLESLEKIEKEQSKQADLSFSSPVEMKNEKSEEEQSSASVKKDETNVKMESEAGADDSAEEGDLLDDDDNEDRGDDQLELKDDEKEPEEGEDDRDSANGEDDS |  |  | Yes | Yes |  | 
6 | DIst (protein, UniProt Q9D2G2 69-454, looked up) Dihydrolipoyllysine-residue …: NDVITVQTPAFAESVTEGDVRWEKAVGDAVAEDEVVCEIETDKTSVQVPSPANGIIEALLVPDGGKVEGGTPLFTLRKTGAAPAKAKPAETPAPAHKAEPAAPAAPPPPAAPVLTQMPPVPSPSQPPSSKPVSAIKPTAAPPLAEAGAAKGLRSEHREKMNRMRQRIAQRLKEAQNTCAMLTTFNEVDMSNIQEMRARHKDAFLKKHNLKLGFMSAFVKASAFALQEQPVVNAVIDDATKEVVYRDYIDISVAVATPRGLVVPVIRNVETMNYADIERTINELGEKARKNELAIEDMDGGTFTISNGGVFGSLFGTPIINPPQSAILGMHAIFDRPVAVGGKVEVRPMMYVALTYDHRLIDGREAVTFLRKIKAAVEDPRVLLLDL |  |  | Yes | Yes |  | DOWN
7 | Slc2a1 (protein, UniProt P17809 1-492, looked up) Solute carrier family 2, …: MDPSSKKVTGRLMLAVGGAVLGSLQFGYNTGVINAPQKVIEEFYNQTWNHRYGEPIPSTTLTTLWSLSVAIFSVGGMIGSFSVGLFVNRFGRRNSMLMMNLLAFVAAVLMGFSKLGKSFEMLILGRFIIGVYCGLTTGFVPMYVGEVSPTALRGALGTLHQLGIVVGILIAQVFGLDSIMGNADLWPLLLSVIFIPALLQCILLPFCPESPRFLLINRNEENRAKSVLKKLRGTADVTRDLQEMKEEGRQMMREKKVTILELFRSPAYRQPILIAVVLQLSQQLSGINAVFYYSTSIFEKAGVQQPVYATIGSGIVNTAFTVVSLFVVERAGRRTLHLIGLAGMAGCAVLMTIALALLERLPWMSYLSIVAIFGFVAFFEVGPGPIPWFIVAELFSQGPRPAAIAVAGFSNWTSNFIVGMCFQYVEQLCGPYVFIIFTVLLVLFFIFTYFKVPETKGRTFDEIASGFRQGGASQSDKTPEELFHPLGADSQV |  | DOWN | Yes | No |  | 
8 | Prpsap2 (protein, UniProt O60256 1-369, looked up) Phosphoribosyl pyrophosphate …: MFCVTPPELETKMNITKGGLVLFSANSNSSCMELSKKIAERLGVEMGKVQVYQEPNRETRVQIQESVRGKDVFIIQTVSKDVNTTIMELLIMVYACKTSCAKSIIGVIPYFPYSKQCKMRKRGSIVSKLLASMMCKAGLTHLITMDLHQKEIQGFFNIPVDNLRASPFLLQYIQEEIPDYRNAVIVAKSPASAKRAQSFAERLRLGIAVIHGEAQDAESDLVDGRHSPPMVRSVAAIHPSLEIPMLIPKEKPPITVVGDVGGRIAIIVDDIIDDVDSFLAAAETLKERGAYKIFVMATHGLLSSDAPRRIEESAIDEVVVTNTIPHEVQKLQCPKIKTVDISMILSEAIRRIHNGESMSYLFRNIGLDD |  |  | Yes | Yes |  | DOWN
9 | Stom (protein, UniProt P54116 1-284, looked up) Stomatin: MSDKRQSSHVQSQRIPESFRENSKTELGACGWILVAASFFFVIITFPISIWICIKIVKEYERVIIFRLGRILQGGAKGPGLFFILPCTDSLIKVDMRTISFDIPPQEVLTKDSVTISVDGVVYYRVQNATLAVANITNADSATRLLAQTTLRNALGTKNLSQILSDREEIAHHMQSTLDDATDDWGIKVERVEIKDVKLPVQLQRAMAAEAEAAREARAKVIAAEGEMNASRALKEASMVITESPAALQLRYLQTLTTIAAEKNSTIVFPLPVDMLQGIMGSNH | DOWN | DOWN | Yes | Yes | DOWN | 
10 | Pitpnb (protein, UniProt P53811 1-271, looked up) Phosphatidylinositol transfer …: MVLIKEFRVVLPCSVQEYQVGQLYSVAEASKNETGGGEGIEVLKNEPYENDGEKGQYTHKIYHLKSKVPAFVRMIAPEGSLVFHEKAWNAYPYCRTIVTNEYMKDDFFIKIETWHKPDLGTLENVHGLDPNTWKTVEIVHIDIADRSQVEPADYKADEDPALFHSVKTKRGPLGPNWKKELANTPDCPRMCAYKLVTIKFKWWGLQSKVENFIQKQEKRIFTNLHRQLFCWIDKWIDLTMEDIRRMEDETQKELETMRKKGSVRGTSAADA | DOWN | DOWN | No | No |  | 
11 | Rbm3 (protein, UniProt O89086 1-153, looked up) RNA-binding protein 3: MSSEEGKLFVGGLNFNTDEQALEDHFSSFGPISEVVVVKDRETQRSRGFGFITFTNPEHASDAMRAMNGESLDGRQIRVDHAGKSARGSRGGAFGGRGRSYSRGGGDQGYGSGRYDSRPGGYGYGYGRSRDYSGSQGGYDRYSGGNYRDNYDN |  | DOWN | No | Yes | DOWN | 
